Data on three molecules can be found in paper doi:10.1101/2020.10.07.329979.

No constants are given. Whether binding was seen depends on the method and setting. Binding seen in cells or lysates may run through a third protein. Some entries that bind do so weakly or less than the wild type. Sequences can lack the tags named with a protein.

The target of assay [1] is T1, FBN1a fused to the N-terminal half of YFP (Arabidopsis thaliana) (UniProt O81439).
T1 sequence: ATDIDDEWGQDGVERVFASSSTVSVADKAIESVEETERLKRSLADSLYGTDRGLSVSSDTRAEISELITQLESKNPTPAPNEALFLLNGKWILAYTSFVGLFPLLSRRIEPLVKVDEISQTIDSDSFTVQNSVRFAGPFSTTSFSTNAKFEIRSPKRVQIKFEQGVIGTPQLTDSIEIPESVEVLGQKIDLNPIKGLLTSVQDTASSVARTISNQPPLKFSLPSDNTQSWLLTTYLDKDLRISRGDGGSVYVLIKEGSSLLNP
As to the kind of experiment: split reporter.

The target of assay [2] is T2, FBN2 fused to the N-terminal half of YFP (Arabidopsis thaliana) (UniProt O82291).
T2 sequence: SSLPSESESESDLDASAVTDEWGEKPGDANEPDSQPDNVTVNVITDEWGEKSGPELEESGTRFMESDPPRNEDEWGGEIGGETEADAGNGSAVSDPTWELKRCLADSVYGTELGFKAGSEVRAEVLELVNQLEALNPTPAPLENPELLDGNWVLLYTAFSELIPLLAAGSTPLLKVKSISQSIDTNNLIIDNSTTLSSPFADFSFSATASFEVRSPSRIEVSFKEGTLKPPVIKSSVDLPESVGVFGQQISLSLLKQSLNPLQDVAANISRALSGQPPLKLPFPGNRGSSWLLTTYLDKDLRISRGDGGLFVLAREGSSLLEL
As to the kind of experiment: split reporter.

B1: AOS fused to the C-terminal moiety of CFP (enzyme, UniProt Q96242 34-518)
chain: SGSETPDLTVATRTGSKDLPIRNIPGNYGLPIVGPIKDRWDYFYDQGAEEFFKSRIRKYNSTVYRVNMPPGAFIAENPQVVALLDGKSFPVLFDVDKVEKKDLFTGTYMPSTELTGGYRILSYLDPSEPKHEKLKNLLFFLLKSSRNRIFPEFQATYSELFDSLEKELSLKGKADFGGSSDGTAFNFLARAFYGTNPADTKLKADAPGLITKWVLFNLHPLLSIGLPRVIEEPLIHTFSLPPALVKSDYQRLYEFFLESAGEILVEADKLGISREEATHNLLFATCFNTWGGMKILFPNMVKRIGRAGHQVHNRLAEEIRSVIKSNGGELTMGAIEKMELTKSVVYECLRFEPPVTAQYGRAKKDLVIESHDAAFKVKAGEMLYGYQPLATRDPKIFDRADEFVPERFVGEEGEKLLRHVLWSNGPETETPTVGNKQCAGKDFVVLVARLFVIEIFRRYDSFDIEVGTSPLGSSVNFSSLRKASF
As for B1, the binding entry in assay [1] and in assay [2] was “binds” throughout.

B2: FBN1a fused to the C-terminal moiety of CFP (protein, UniProt O81439 56-318)
chain: T1 sequence
Regarding B2, the binding result in assay [2] is given as “binds”.

B3: FBN2 fused to the N-terminal half of YFP (protein, UniProt O82291 54-376)
chain: T2 sequence
Turning to B3, the binding result in assay [2] was “binds”.
